The values below come from publication PMC10272277.

Sequences of proteins named here, by UniProt entry; tags and fusion partners are left off. Residues count along the entry.
UniProt P37173, residues 23-567: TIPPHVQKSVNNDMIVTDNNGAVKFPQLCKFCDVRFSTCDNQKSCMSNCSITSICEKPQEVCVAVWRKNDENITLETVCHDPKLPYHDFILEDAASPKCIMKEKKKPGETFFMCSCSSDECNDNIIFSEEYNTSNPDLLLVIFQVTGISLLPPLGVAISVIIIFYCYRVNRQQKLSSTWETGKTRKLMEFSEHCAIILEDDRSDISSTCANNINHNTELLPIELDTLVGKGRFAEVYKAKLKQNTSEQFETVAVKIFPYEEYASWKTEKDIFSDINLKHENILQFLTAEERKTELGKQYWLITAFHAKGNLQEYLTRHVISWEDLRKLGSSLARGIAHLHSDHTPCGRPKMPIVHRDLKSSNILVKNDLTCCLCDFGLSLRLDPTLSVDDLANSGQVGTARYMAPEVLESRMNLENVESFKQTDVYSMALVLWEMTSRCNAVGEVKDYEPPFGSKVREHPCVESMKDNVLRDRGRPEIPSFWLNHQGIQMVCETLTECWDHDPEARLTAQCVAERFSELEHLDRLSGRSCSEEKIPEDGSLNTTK

Results are given in words; binding and its absence hold for the method and conditions named. Binding seen in cells or lysates may run through a third protein. Some binding calls cover weakened binding; strength is not graded here. For some assays here: Sequences can lack the tags named with a protein.

Assay [1] has as its target T1, USP33 (UniProt Q8TEY7).
T1 sequence: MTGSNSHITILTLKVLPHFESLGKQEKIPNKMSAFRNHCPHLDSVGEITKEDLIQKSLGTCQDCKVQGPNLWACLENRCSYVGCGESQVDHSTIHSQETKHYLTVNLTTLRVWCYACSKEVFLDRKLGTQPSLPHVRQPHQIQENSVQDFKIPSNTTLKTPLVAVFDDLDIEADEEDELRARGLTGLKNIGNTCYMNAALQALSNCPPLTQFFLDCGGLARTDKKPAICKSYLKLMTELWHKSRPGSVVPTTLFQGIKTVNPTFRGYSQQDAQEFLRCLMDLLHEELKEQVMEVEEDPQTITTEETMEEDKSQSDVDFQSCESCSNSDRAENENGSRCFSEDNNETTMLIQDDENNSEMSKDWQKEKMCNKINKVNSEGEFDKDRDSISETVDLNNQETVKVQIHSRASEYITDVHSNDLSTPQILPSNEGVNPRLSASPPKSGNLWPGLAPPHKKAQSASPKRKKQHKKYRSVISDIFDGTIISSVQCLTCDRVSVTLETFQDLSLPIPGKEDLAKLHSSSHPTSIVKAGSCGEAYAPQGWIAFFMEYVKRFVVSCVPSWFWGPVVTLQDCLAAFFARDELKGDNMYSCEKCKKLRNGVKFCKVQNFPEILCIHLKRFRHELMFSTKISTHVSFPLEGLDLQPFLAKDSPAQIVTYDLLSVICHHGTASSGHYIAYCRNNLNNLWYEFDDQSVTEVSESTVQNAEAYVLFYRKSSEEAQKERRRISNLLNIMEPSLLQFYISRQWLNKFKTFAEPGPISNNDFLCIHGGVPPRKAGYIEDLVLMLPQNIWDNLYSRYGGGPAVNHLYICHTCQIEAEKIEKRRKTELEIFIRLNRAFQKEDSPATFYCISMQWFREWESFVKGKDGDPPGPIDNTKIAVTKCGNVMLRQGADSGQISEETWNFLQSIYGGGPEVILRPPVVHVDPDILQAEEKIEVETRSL
The experiment in a line: co-IP; PC cells transfected with corresponding plasmids, NP40 lysis buffer, overnight at 4 °C with IP antibody or isotype IgG, protein A/G magnetic beads, Western blot.

Assay [2] concerns the target T2, USP33 (luciferase complementation construct) (UniProt Q8TEY7).
T2 sequence: T1 sequence
The experiment in a line: split reporter; luciferase complementation assay of USP33 with candidate target proteins; no methods given.

Regarding “TGFBR2 (from UniProt P37173 23-567) (receptor)”, the binding entry in assay [1] is on record as “binds”. “TGFBR2 (luciferase complementation construct) (from UniProt P37173 23-567) (receptor)”: the binding entry in assay [2] is “binds”.
